Results from PMC9663828.
These are yes or no findings as the source states them, for the method shown. Binding seen in cells or lysates may run through a third protein. Some entries that bind do so weakly or less than the wild type. Where a sequence is shown, tags or fusion partners need not be part of it.

Sequences of proteins named here, by UniProt entry; tags and fusion partners are left off.
UniProt Q9BVG3: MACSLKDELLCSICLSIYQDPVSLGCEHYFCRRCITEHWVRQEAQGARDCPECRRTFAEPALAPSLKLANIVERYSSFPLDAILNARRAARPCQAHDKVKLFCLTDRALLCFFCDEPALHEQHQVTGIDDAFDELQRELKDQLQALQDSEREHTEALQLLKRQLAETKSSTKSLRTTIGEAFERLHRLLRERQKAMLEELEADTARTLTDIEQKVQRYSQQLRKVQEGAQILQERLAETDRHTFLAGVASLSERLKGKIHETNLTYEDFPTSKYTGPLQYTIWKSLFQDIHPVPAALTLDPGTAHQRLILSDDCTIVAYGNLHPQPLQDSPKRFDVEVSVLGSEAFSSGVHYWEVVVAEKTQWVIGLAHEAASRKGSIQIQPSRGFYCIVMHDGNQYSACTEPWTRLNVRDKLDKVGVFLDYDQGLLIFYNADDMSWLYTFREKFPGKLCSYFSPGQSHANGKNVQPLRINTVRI

Target: HA-DEAR1 (UniProt Q9BVG3)
Assay: co-IP; HEK293T co-transfected with HA-DEAR1 and/or Myc-SNAI2 for 24 h, MG-132 for 2 h before harvest; M-PER lysis; immunoprecipitated with anti-HA (rabbit) overnight at 4 °C, protein A/G agarose, RIPA washes; blotted with anti-Myc (mouse)

binding: binds
B1: Myc-SNAI2 (protein, UniProt O43623 1-268)
chain: MPRSFLVKKHFNASKKPNYSELDTHTVIISPYLYESYSMPVIPQPEILSSGAYSPITVWTTAAPFHAQLPNGLSPLSGYSSSLGRVSPPPPSDTSSKDHSGSESPISDEEERLQSKLSDPHAIEAEKFQCNLCNKTYSTFSGLAKHKQLHCDAQSRKSFSCKYCDKEYVSLGALKMHIRTHTLPCVCKICGKAFSRPWLLQGHIRTHTGEKPFSCPHCNRAFADRSNLRAHLQTHSDVKKYQCKNCSKTFSRMSLLHKHEESGCCVAH
